Experimental data from publication PMC10063618.
These are yes or no findings as the source states them, for the method shown. In cells and extracts the contact can be indirect. These calls come from enrichment with a bait or labelling near it, and not all partners need be listed. Tags and fused reporters may be left off the sequences shown.

Target: T1, YFP-FREE1 (transgenic Arabidopsis seedlings, bait of the IP-MS) (Arabidopsis thaliana) (UniProt Q9ASS2)
T1 sequence: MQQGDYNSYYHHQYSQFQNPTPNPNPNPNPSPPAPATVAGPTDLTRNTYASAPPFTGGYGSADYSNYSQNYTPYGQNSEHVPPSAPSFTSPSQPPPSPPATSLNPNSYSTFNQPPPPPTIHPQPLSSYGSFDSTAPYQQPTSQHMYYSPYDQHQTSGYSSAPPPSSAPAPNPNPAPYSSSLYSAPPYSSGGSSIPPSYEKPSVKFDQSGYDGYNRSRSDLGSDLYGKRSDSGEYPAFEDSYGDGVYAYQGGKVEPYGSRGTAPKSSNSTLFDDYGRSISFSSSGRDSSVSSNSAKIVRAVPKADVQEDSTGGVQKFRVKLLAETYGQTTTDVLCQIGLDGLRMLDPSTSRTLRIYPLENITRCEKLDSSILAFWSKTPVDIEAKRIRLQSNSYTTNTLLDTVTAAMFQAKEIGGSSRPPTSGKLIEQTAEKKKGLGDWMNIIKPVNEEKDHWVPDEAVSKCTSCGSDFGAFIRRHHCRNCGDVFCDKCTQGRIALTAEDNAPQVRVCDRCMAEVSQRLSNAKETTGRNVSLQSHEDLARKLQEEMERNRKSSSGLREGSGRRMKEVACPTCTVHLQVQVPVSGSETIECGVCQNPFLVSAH
Experiment: affinity purification with mass spectrometry; GFP-Trap magnetic beads at 4 °C on extracts of 5 DAG transgenic seedlings expressing YFP-FREE1 after carbon starvation for at least 18 h; IP buffer 50 mM Tris-HCl pH 7.4, 150 mM NaCl, 1 mM MgCl2, 20% glycerol, 0.2% NP-40; GFP control; iBAQ (MaxQuant)

binding: binds
B1: KIN10 (SnRK1α1), endogenous (enzyme, UniProt Q38997 1-512)
chain: MDGSGTGSRSGVESILPNYKLGRTLGIGSFGRVKIAEHALTGHKVAIKILNRRKIKNMEMEEKVRREIKILRLFMHPHIIRLYEVIETPTDIYLVMEYVNSGELFDYIVEKGRLQEDEARNFFQQIISGVEYCHRNMVVHRDLKPENLLLDSKCNVKIADFGLSNIMRDGHFLKTSCGSPNYAAPEVISGKLYAGPEVDVWSCGVILYALLCGTLPFDDENIPNLFKKIKGGIYTLPSHLSPGARDLIPRMLVVDPMKRVTIPEIRQHPWFQAHLPRYLAVPPPDTVQQAKKIDEEILQEVINMGFDRNHLIESLRNRTQNDGTVTYYLILDNRFRASSGYLGAEFQETMEGTPRMHPAESVASPVSHRLPGLMEYQGVGLRSQYPVERKWALGLQSRAHPREIMTEVLKALQDLNVCWKKIGHYNMKCRWVPNSSADGMLSNSMHDNNYFGDESSIIENEAAVKSPNVVKFEIQLYKTRDDKYLLDLQRVQGPQFLFLDLCAAFLAQLRVL
